For one substance, binding results are on record in paper PMC11883000, “Structure-function relationship of ASH1L and histone H3K36 and H3K4 methylation” (Nature Communications, 2025).

For assay [1], the target named is ASH1L bromodomain (aa 2430-2564) (human) (UniProt Q9NR48). In words: NMR titration; 1H,15N HSQC chemical shift perturbation; unlabelled ligand (histone peptide or ASH1LSET) added to 0.1-0.2 mM 15N-labelled protein; 298 K; 25 mM Tris pH 7.5, 150 mM NaCl, 5 mM DTT; both purified.
Assay [2] has as its target ASH1L plant homeodomain (PHD) finger, wild type (aa 2579-2629) (human) (UniProt Q9NR48). Described as above.

These are yes or no findings as the source states them, for the method shown. For some assays here: A result given as binding can be weak or reduced; the word gives no strength.

Consider “ASH1L SET domain, isolated (from UniProt Q9NR48) (domain or fragment)”, for which the binding entry in assay [1] is recorded as “binds”; in assay [2], “no binding”.
